In US20070293514A1, “Triazolopyrimidines” (priority 2003, published 2007):
Some entries share one result that the patent states for a list of compounds.

Experiments:
Assay type in all cases: in vivo
Sphaerotheca fuliginea = assay: Sphaerotheca-Test (Cucumber)/protective; details: protective, application rate 750 g/ha, evaluation 7 days after inoculation
Botrytis cinerea = assay: Botrytis - Test (Bean)/protective; details: protective, application rate 500 g/ha, evaluation 2 days after inoculation
Podosphaera leucotricha = assay: Podosphaera-test (Apple)/protective; details: protective, application rate 100 g/ha, evaluation 10 days after inoculation
Venturia inaequalis = assay: Venturia - Test (Apple)/protective; details: protective, application rate 100 g/ha, evaluation 10 days after inoculation

| Compound | efficacy (Sphaerotheca fuliginea) | efficacy (Botrytis cinerea) | efficacy (Podosphaera leucotricha) | efficacy (Venturia inaequalis) |
| --- | --- | --- | --- | --- |
| C[Si](C)(C)CNc1c(-c2ncncc2Cl)c(Cl)nc2ncnn12 [Example 24] | more than 90% |  |  |  |
| CC(Nc1c(-c2ccc(F)cc2Cl)c(Cl)nc2ncnn12)[Si](C)(C)C (centres unmarked) [Example 6] |  | more than 90% | more than 90% | more than 90% |
| C[Si](C)(C)CNc1c(-c2c(F)cccc2Cl)c(Cl)nc2ncnn12 [Example 3] |  |  | more than 90% | more than 90% |
| CC(Nc1c(-c2c(F)cccc2Cl)c(Cl)nc2ncnn12)[Si](C)(C)C (centres unmarked) [Example 5] |  |  | more than 90% | more than 90% |
